Where a protein sequence is shown, tags need not be part of it.
Key:
[1] = molecular target: T1, 6His-ArsR2 (Pseudomonas putida KT2440) (UniProt Q88JD1); experiment: EMSA; details: no arsenite, 'gross KD'; EMSA: TRRG buffer (20 mM Tris-HCl pH 7.5, 50 mM KCl, 2 mM beta-mercaptoethanol, 10% glycerol), BSA, 25 ug/ml herring sperm DNA, 0.3 nM probe, 20 min 30 C; recombinant protein; residues 1-115; protein details: N-terminal MRGSHHHHHHGIL (pQE32); label: 32P 3' end label (Klenow fill-in at EcoRI end); probe letters rebuilt from the primers and the genome
T1 sequence (looked up): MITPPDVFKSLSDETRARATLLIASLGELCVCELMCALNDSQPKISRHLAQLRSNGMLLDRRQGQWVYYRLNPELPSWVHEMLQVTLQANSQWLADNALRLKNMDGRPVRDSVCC

[2] = molecular target: T1, 6His-ArsR2 (Pseudomonas putida KT2440); experiment: DNase I footprinting; details: protected -36 to +23, 25-250 nM protein; footprinting: TRRG, 1 mg/ml BSA, 2 nM probe, 37 C; recombinant protein; residues 1-115; protein details: N-terminal MRGSHHHHHHGIL (pQE32); label: 32P 3' end label (Klenow fill-in at EcoRI end); probe letters rebuilt from the primers and the genome
[3] = molecular target: T1, 6His-ArsR2 (Pseudomonas putida KT2440); experiment: competition with a labelled probe; details: unlabeled same-sequence probe competed (data not shown); EMSA: TRRG buffer (20 mM Tris-HCl pH 7.5, 50 mM KCl, 2 mM beta-mercaptoethanol, 10% glycerol), BSA, 25 ug/ml herring sperm DNA, 0.3 nM probe, 20 min 30 C; recombinant protein; residues 1-115; protein details: N-terminal MRGSHHHHHHGIL (pQE32); label: 32P 3' end label (Klenow fill-in at EcoRI end); probe letters rebuilt from the primers and the genome

## AGAGGATCCTGGCGATAAGCAGAGTGGCGCGAGCGCGGGTTTCGTCAGAGAGGCTTTTGAAGACATCGGGCGGTGTGATCATGGGGGTGCCTGTACATACGGAAAACCGAATATACGTATTTCCATATGTGCTAGCAAGCCTTCCTGGGCTTGTGCGCTTGCAGCTCGCCGTCGCCACGCCCTTCGGTCGACAAAAGCAGGGTTTTGGCAGGCTTCAGACGCTGATGGCAATGCAGGGTGTATAGTGCTTGCTCGGGTGACTGTCGTTCAGTGGCTCATAACCGAGATGCCAACATGAATT (double strand) [Pars2 probe]
[1]
  Kd: 0.5 µM
[2]
  binding result: binds
[3]
  binding result: binds
